# Reference: the supplement of paper PMC3334620
# In all, about 33,000 sequences were measured (“E-score (-0.5 to 0.5)”: median about -0.0034, highest 2% from about 0.25 on). The list shows a part of the results.
# Biological target: T1, Yap3 (UniProt P38749)
# T1 sequence: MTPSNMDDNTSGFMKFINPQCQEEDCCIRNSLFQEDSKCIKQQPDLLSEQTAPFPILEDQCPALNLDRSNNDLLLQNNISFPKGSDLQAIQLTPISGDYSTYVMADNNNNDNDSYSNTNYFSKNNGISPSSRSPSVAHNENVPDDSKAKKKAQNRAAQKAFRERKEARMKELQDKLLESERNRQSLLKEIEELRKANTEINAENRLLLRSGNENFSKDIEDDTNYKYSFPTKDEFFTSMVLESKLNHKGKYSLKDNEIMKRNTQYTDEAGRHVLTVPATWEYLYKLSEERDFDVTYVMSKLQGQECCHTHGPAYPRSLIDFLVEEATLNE
# Experiment: PBM E-score (8-mer binding enrichment) (E-score (-0.5 to 0.5)); higher = stronger / more preferred TF binding
# Details: protein concentration: 100 nM; construct: GST-full length
# Method: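 Universal 'all 10-mer' protein binding microarrays (Agilent AMADID 015681) probed with GST-tagged S. cerevisiae TFs (full-length or DBD) made by in vitro transcription/translation (PURExpress), about 100-200 nM. Bound TF was detected with fluorescent anti-GST. Each ungapped 8-mer (which stands for itself and its reverse complement) is scored by the PBM enrichment score (E-score), a modified Wilcoxon-Mann-Whitney statistic from -0.5 to +0.5, computed with the Universal PBM Analysis Suite. Scale: above 0.35 generally sequence-specific binding.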
row,Sequence,PBM E-score
1,ATAAGGAC,0.0651
2,CAACGGTA,-0.108
3,ACACGTGC,0.0266
4,TATCTTAA,0.134
5,ATTATCAC,0.282
6,AATACGTA,0.296
7,CCAGATGA,-0.0937
8,TAGGTCCA,-0.0617
9,CGAGTTAC,0.11
10,GCGAAACA,0.158
11,ACCATTGC,0.00672
12,GGTGTTAA,0.0307
13,GCCGGTCA,0.0221
14,ATCATGCA,0.123
15,CTCAATTC,0.0176
16,CTCACGAG,-0.168
17,AGAGGTTC,0.104
18,AGAACCAC,-0.0844
19,ACGATCGT,0.00244
20,GTGTGTAA,0.136
21,CTGCGCAC,-0.0182
22,AAGGCCAT,0.0921
23,GTGGGGAA,0.0765
24,CCTCTTGA,-0.0262
25,GGCCTGTA,-0.0898

row,Sequence,PBM E-score
1,ACTACATC,0.145
2,CTCGTCAC,0.0189
3,ATATACAA,0.322
4,GATCACAA,0.141
5,TATCAAAA,0.23
6,CCAAGCAC,-0.0266
7,GCCCGAGA,-0.0118
8,CAACTTTA,0.0997
9,GAAACGGC,0.0838
10,GGACGAAC,-0.00251
11,CCGAATAC,0.125
12,AAATAATG,0.24
13,CGTTGTAA,0.0119
14,ACCCTGGC,-0.13
15,GTAAGATA,0.228
16,CACATTGA,0.16
17,ATATGGTA,0.234
18,AACGTAGT,-0.0878
19,GCTAAGCA,-0.143
20,ACCCCAAA,-0.0012
21,CCTAAATA,-0.122
22,AGCACCTC,-0.111
23,CATTCCGA,0.24
24,CTGATAGC,-0.16
25,GGCTCATA,0.082

row,Sequence,PBM E-score
1,TACGACGA,0.141
2,CAAATCAG,0.0568
3,GGGGCCCA,-0.339
4,CGCATCAA,0.105
5,AAAATGGT,0.214
6,CTCCCAAA,0.0555
7,AAGATCTG,-0.0415
8,AAACAAAC,0.181
9,AACAAGGG,-0.0929
10,ATATTTCA,0.197
11,ATTGACCC,0.0651
12,ATAGGTGG,-0.0769
13,ACTTAAGG,0.0987
14,ACGGCGCT,-0.187
15,ACTCAACG,-0.0625
16,TATCCATA,0.217
17,GCCGCATA,0.115
18,CCTGCAGC,-0.12
19,CCGTTACA,0.166
20,AAACCGTG,-0.0242
21,ACTTTTGG,0.123
22,TATCGGGA,0.0757
23,AGTTAGTG,0.133
24,AAATAGAT,0.193
25,TGCCAACA,-0.036

# Exported tab-delimited: entries from further up.
row	Sequence	PBM E-score
7	AAGATCTG	-0.0415
8	AAACAAAC	0.181
9	AACAAGGG	-0.0929
10	ATATTTCA	0.197
11	ATTGACCC	0.0651

# Next entries follow:

row,Sequence,PBM E-score
1,AAATACCG,0.143
2,AAGAGCTG,-0.0831
3,CACGTCCC,-0.138
4,AGGTTGAA,0.0605
5,TGTAGGAA,0.0409
6,ACATCCCT,0.00758
7,ATGTCCTA,-0.0602
8,AGCAGTCA,-0.107
9,CCGAAATA,0.12
10,CCTGTTTC,-0.0337
11,ATTGAAAG,0.143
12,CGCCACAG,-0.157
13,TTATAGAA,0.00865
14,AGGCCCAA,-0.0375
15,CTCGTAGA,-0.244
16,AGCTTACA,0.0995
17,CGATTCCG,-0.102
18,AAACCAGC,-0.0362
19,GAAGTGGA,-0.0711
20,TAGCGGCA,-0.117
21,GGGAGGAA,-0.13
22,ATAAGCAC,0.0902
23,CATATAGG,-0.0735
24,TACTGACA,0.222
25,CTCTATAA,0.0647

row,Sequence,PBM E-score
1,ACTGTGAT,0.0589
2,ACCGGCGA,0.0051
3,GGCCAATA,0.034
4,ACATCATC,0.174
5,CTGGGTGC,-0.276
6,AAACTATC,0.0222
7,ACCGTACA,0.0667
8,GAAGATGA,0.00217
9,GAGAGCTA,0.00545
10,AACGACGA,0.0497
11,CTGACTAC,-0.0607
12,ACTAAACG,0.111
13,GTACGCCA,-0.112
14,GTGATCGA,0.282
15,CGGTCTTC,-0.139
16,GGAGTATA,0.0361
17,CCGGACAA,-0.00432
18,AACGCGGC,0.0716
19,GACCTCCA,-0.225
20,TCCGGCGA,0.0592
21,GTCCCTTA,0.179
22,TGGTGCAA,0.0067
23,ATTGGCCA,0.0449
24,GGAAAGCC,-0.0527
25,ATGAATGA,0.106

# Some of the entries so far, with bars between the fields:
row | Sequence | PBM E-score
10 | CCTGTTTC | -0.0337
14 | GTGATCGA | 0.282

# (listing goes on)

row,Sequence,PBM E-score
1,CCCATGAG,-0.0304
2,GTTCTGGA,0.0684
3,AATTTGGT,0.173
4,ATGCTCCG,-0.142
5,ACCACCCA,-0.0418
6,AGACTTAC,-0.0295
7,TCAAGGAA,-0.0142
8,TCCCGAAA,0.0359
9,AATCGCCA,-0.0296
10,AGTGGTAT,0.0856
11,ACAAGTAT,0.184
12,AAGAGTGC,-0.0219
13,ACACAACA,-0.0291
14,AATGTTTC,0.126
15,AATGGATG,0.123
16,ACAGGTAA,0.036
17,TACGAGTA,0.141
18,ACCCACGA,-0.0242
19,GAGTCCGA,0.112
20,GCCTAAGA,-0.134
21,GTGACTAA,0.262
22,GGCGAGTA,0.0731
23,GAGGCTGA,-0.15
24,ATATCTCA,0.268
25,GGAGTCTA,-0.176

row,Sequence,PBM E-score
1,ATCCTTAA,0.0228
2,CCGAGGTC,-0.101
3,AAGTAAGC,-0.0645
4,TCTCCTCA,-0.0196
5,ATCACCCG,0.035
6,CGATTGGC,0.033
7,CTTCCCAA,0.0527
8,GTGGGGGA,-0.149
9,GATATAAC,0.0853
10,ACCTTTCG,-0.048
11,ATTATTTG,0.197
12,CTCGTCCC,-0.161
13,CTCCAGCC,-0.253
14,AATGTCAC,0.0913
15,CGCTTTAA,0.108
16,GTCTCTGA,-0.158
17,ACATAGCT,-0.104
18,ATTCTGTC,0.0978
19,ATAAACTA,0.151
20,CGAAGGAG,-0.133
21,ACGAGTCG,-0.0603
22,CGTAACAA,0.174

# 3 successive entries from above:
row,Sequence,PBM E-score
14,AATGTCAC,0.0913
15,CGCTTTAA,0.108
16,GTCTCTGA,-0.158
